From patent US11498946B2, “Pharmaceutical composition for combination therapy for preventing or treating cancer containing tumor-specific drug conjugate and anti-PD-L1 antibody as active ingredients” (KOREA INSTITUTE OF SCIENCE AND TECHNOLOGY, priority 2019, dated 2022)
Some entries share one result that the patent states for a list of compounds.

Experiment: In-vivo toxicity by body weight depending on time, and death, in tumor-bearing mice
Settings: HT-29 tumor-bearing nude mice

COc1cccc2c1C(=O)c1c(O)c3c(c(O)c1C2=O)C[C@@](O)(C(=O)CO)C[C@@H]3O[C@H]1C[C@H](N)[C@H](O)[C@H](C)O1 [DOX, doxorubicin]
time to death of the mice: ≤ 20 days
